The values below come from the supplement of paper PMC10849652.

By UniProt entry, the sequences of proteins in these tests, tags left out. Where a name states a change or a piece, a line headed by the entry shows the natural chain unless it says otherwise.
UniProt O75312: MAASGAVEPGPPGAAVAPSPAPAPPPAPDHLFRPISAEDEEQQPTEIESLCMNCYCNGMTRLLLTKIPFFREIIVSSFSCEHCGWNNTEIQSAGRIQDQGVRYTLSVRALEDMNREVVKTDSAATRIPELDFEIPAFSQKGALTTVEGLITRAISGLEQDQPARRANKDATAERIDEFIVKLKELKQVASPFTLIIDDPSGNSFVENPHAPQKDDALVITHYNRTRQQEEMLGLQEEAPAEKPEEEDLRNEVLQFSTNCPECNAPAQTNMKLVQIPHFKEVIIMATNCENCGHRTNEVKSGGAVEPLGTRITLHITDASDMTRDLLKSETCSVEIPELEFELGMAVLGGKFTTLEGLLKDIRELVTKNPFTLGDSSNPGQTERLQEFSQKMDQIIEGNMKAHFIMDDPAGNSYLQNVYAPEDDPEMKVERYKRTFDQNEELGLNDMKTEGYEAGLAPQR

Some of the results follow.

This test concerns the target ZPR1 (UniProt O75312). In words: log2 fold change, soluble protein after heating vs DMSO (PISA); higher = thermal stabilisation; K562 cells, 10 uM, 30 min; active = over 0.2 and 3.5 SD of the protein, either way, in both replicates (recomputed). Put shortly:
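K562 cells at 2×10^6 cells/mL were exposed to 10 μM compound for 30 min, then aliquots were heated for 3 min across 48°C-58°C, pooled, and extracted in PBS containing 0.5% NP-40 at 4°C. The supernatant after 21,000xg for 90 min was taken as soluble protein and measured by TMTpro 16plex LC-MS/MS with channel sums equalised. Thermal stability is reported relative to control samples, with values from duplicates. Fold changes are given on a log2 scale.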
Consider `CN1CC[C@H](c2c(O)cc(O)c3c(=O)cc(-c4ccccc4Cl)oc23)[C@H](O)C1` [alvocidib], for which the log2 fold change was inactive: -0.077.
The figure for `Cc1cc(SCc2sc(-c3ccc(C(F)(F)F)cc3)nc2C)ccc1OCC(=O)O` is inactive: 0.015; for `O=C1NC(=O)C(c2cnc3ccccn23)=C1c1cn2c3c(cc(F)cc13)CN(C(=O)N1CCCCC1)CC2` it is inactive: -0.045; for `CC[C@H](C)n1cc(C)c2c(C(=O)NCc3c(C)cc(C)[nH]c3=O)cc(-c3ccc(N4CCNCC4)nc3)cc21` it is inactive: 0.033.
The figure for `Cn1cc(-c2ccc3c(c2)CCN3C(=O)Cc2cccc(C(F)(F)F)c2)c2c(N)ncnc21` is inactive: 0.016.
Then `Cc1cc(Nc2cc(N3CCN(C)CC3)nc(Sc3ccc(NC(=O)C4CC4)cc3)n2)n[nH]1` [tozasertib], with inactive: 0.051; and `CC(C)(O)CC(=O)NCCn1ccc2ncnc(Nc3ccc(Oc4cccc(C(F)(F)F)c4)c(Cl)c3)c21`, with inactive: -0.005.
As for `O=C(Nc1cccc(Nc2ncc(Br)c(NCCc3cnc[nH]3)n2)c1)N1CCCC1`, the log2 fold change is inactive: -0.031.
Then `C[C@H](Nc1ncnc2nc[nH]c12)c1cc2cccc(Cl)c2c(=O)n1-c1ccccc1` [duvelisib], with inactive: 0.001; and `C[C@@H](N)c1ccc(C(=O)Nc2ccnc3[nH]ccc23)cc1`, with inactive: -0.132; and `NC1(Cc2ccc(Cl)cc2)CCN(c2ncnc3[nH]ccc23)CC1`, with inactive: -0.016.
The figure for `CC[C@H](C)[C@H](NC(=O)[C@H]([C@@H](C)CC)N(C)C(C)=O)C(=O)N[C@H](C(=O)N[C@@H](CC(C)C)C(=O)[C@@]1(C)CO1)[C@@H](C)O` [epoxomicin] is inactive: 0.012.
